Assay results: patent publication US6569612B1, “Photographic element containing a high-dye-yield coupler for producing a yellow hue” (Eastman Kodak Company, priority 2001, dated 2003)

How the values were obtained:
[1] = Example 2 photothermographic coating evaluation, heated drum processor; conditions: for Amplification: Drange/(molar laydown/m^2 of coupler); for Amplification / Rel. Amp.: drum 161° C. for 18 s; for Blue Dmax / Drange / Gamma: E-1 emulsion, heated drum 161° C. for 18 s; for Rel. Amp.: relative to CY-1
[2] = Example 3 photothermographic coating evaluation, emulsion E2; conditions: for Amplification: Drange/(molar laydown/m^2 of coupler); for Amplification / Drange / Gamma / Rel. Amp.: Emulsion E2; for Amplification / Rel. Amp.: 161° C. for 18 s; for Blue Dmax: Emulsion E2 (green sensitized); for Blue Dmax / Drange / Gamma: heated drum 161° C. for 18 s; for Rel. Amp.: relative to CY-1
[3] = Example 1 photothermographic coating evaluation, emulsion E-1, heated platen; conditions: platen 150 deg C, 20 s; for Rel. Amp.: Amplification for test coupler/Amplification for CY-1; for Amplification: Drange/(molar laydown/m^2 of coupler); for Blue Dmax / Drange / Gamma: E-1 emulsion; for Blue Dmax: CY-1 0.72 mmol/m^2, dye releasing couplers 0.36 mmol/m^2; for Drange: Dmax − Dmin; for Gamma: maximum 2-point contrast
[4] = Example 5 photothermographic coating evaluation; conditions: for Blue Dmax: Example 5, format as Example 3; for Blue Dmax / Drange / Gamma: heated drum 161° C. for 18 s; for Amplification / Drange / Gamma / Rel. Amp.: Example 5; for Amplification: Drange/(molar laydown/m^2 of coupler); for Rel. Amp.: relative to CY-1

SMILES: CCCCCCCCCCCCS(=O)(=O)c1ccc(NC(=O)C(OC(=O)N(c2ccc(/C=C(\C#N)c3nc4cc(C(C)(C)C)ccc4o3)c(C)c2)C2CCCC2)C(=O)c2ccccc2)c(Cl)c1 (stereo not drawn) [Coupler Y-3]
- Amplification [1]: 2467
- Blue Dmax [1]: 1.23
- Drange [1]: 0.89
- Gamma [1]: 0.80
- Rel. Amp. [1]: 2.2
- Amplification [2]: 1889
- Blue Dmax [2]: 0.93
- Drange [2]: 0.68
- Gamma [2]: 0.62
- Rel. Amp. [2]: 2.9

SMILES: CCCCCCCCCCCCS(=O)(=O)c1ccc(NC(=O)C(OC(=O)N(C)c2ccc(/C=C(\C#N)c3nc4cc(C(C)(C)C)ccc4o3)c(C)c2)C(=O)c2ccccc2)c(Cl)c1 (stereo not drawn) [Coupler Y-1]
- Amplification [1]: 3314
- Blue Dmax [1]: 1.59
- Drange [1]: 1.19
- Gamma [1]: 1.11
- Rel. Amp. [1]: 3.0
- Rel. Amp. [3]: 3.0
- Amplification [3]: 3822
- Blue Dmax [3]: 1.89
- Drange [3]: 1.38
- Gamma [3]: 1.32
- Amplification [2]: 2353
- Blue Dmax [2]: 1.06
- Drange [2]: 0.85
- Gamma [2]: 0.6
- Rel. Amp. [2]: 3.6
- Blue Dmax [4]: 1.08
- Amplification [4]: 2144
- Drange [4]: 0.77
- Gamma [4]: 0.69
- Rel. Amp. [4]: 3.4

SMILES: CCC(C)(C)c1cc(C(C)(C)CC)c2oc(/C(C#N)=C/c3ccc(N(C(=O)OC(C(=O)Nc4ccc([N+](=O)[O-])cc4Cl)C(=O)c4ccccc4)C4CCCC4)cc3C)nc2c1 (stereo not drawn) [Coupler Y-5]
- Amplification [2]: 2600
- Blue Dmax [2]: 1.13
- Drange [2]: 0.94
- Gamma [2]: 0.76
- Rel. Amp. [2]: 3.9

SMILES: CCC(C)(C)c1cc(C(C)(C)CC)c2oc(/C(C#N)=C/c3ccc(N(C(=O)OC(C(=O)Nc4cc(CS(=O)(=O)c5ccccc5)ccc4Cl)C(=O)c4ccc(OC)cc4)C4CCCC4)cc3C)nc2c1 (stereo not drawn) [CY-4]
- Rel. Amp. [3]: 1.7
- Amplification [3]: 2172
- Blue Dmax [3]: 0.98
- Drange [3]: 0.78
- Gamma [3]: 0.75

SMILES: CCCCCCCCCCCCOC(=O)c1ccc(Cl)c(NC(=O)C(C(=O)c2ccc(OC)cc2)N2C(=O)C(OCC)N(Cc3ccccc3)C2=O)c1 (stereo not drawn) [CY-1]
- Amplification [1]: 1103
- Blue Dmax [1]: 0.94
- Drange [1]: 0.79
- Gamma [1]: 0.69
- Rel. Amp. [1]: (1.0)
- Rel. Amp. [3]: (1.0)
- Amplification [3]: 1278
- Blue Dmax [3]: 1.15
- Drange [3]: 0.92
- Gamma [3]: 0.86
- Amplification [2]: 663
- Blue Dmax [2]: 0.58
- Drange [2]: 0.48
- Gamma [2]: 0.33
- Rel. Amp. [2]: (1.0)
- Blue Dmax [4]: 0.59
- Amplification [4]: 632
- Drange [4]: 0.46
- Gamma [4]: 0.31
- Rel. Amp. [4]: (1.0)

SMILES: CCCCCCCCCCCCOC(=O)c1ccc(Cl)c(NC(=O)C(OC(=O)N(C)c2ccc(/C=C(\C#N)c3nc4cc(C(C)(C)C)ccc4o3)c(C)c2)C(=O)c2ccc(OC)cc2)c1 (stereo not drawn) [CY-7]
- Rel. Amp. [3]: 1.8
- Amplification [3]: 2289
- Blue Dmax [3]: 1.08
- Drange [3]: 0.82
- Gamma [3]: 0.78

SMILES: CCCCCCCCCCCCCCCCNS(=O)(=O)c1ccc(Cl)c(NC(=O)C(OC(=O)N(CCCCCCCCCCCC)c2ccc(/C=C(\C#N)c3nc4ccccc4o3)c(C)c2)C(=O)c2ccc(OC)cc2)c1 (stereo not drawn) [CY-12]
- Rel. Amp. [3]: 2.5
- Amplification [3]: 3236
- Blue Dmax [3]: 1.34
- Drange [3]: 1.17
- Gamma [3]: 1.03
- Blue Dmax [4]: 0.55
- Amplification [4]: 1153
- Drange [4]: 0.42
- Gamma [4]: 0.22
- Rel. Amp. [4]: 1.8

SMILES: CCC(C)(C)c1cc(C(C)(C)CC)c2oc(/C(C#N)=C/c3ccc(N(C(=O)OC(C(=O)Nc4cc(CS(=O)(=O)c5ccc(O)cc5)ccc4Cl)C(=O)c4ccc(OC)cc4)C4CCCC4)cc3C)nc2c1 (stereo not drawn) [CY-5]
- Rel. Amp. [3]: 2.0
- Amplification [3]: 2522
- Blue Dmax [3]: 1.18
- Drange [3]: 0.91
- Gamma [3]: 0.87

SMILES: COc1ccc(C(=O)C(OC(=O)N(c2ccc(/C=C(\C#N)c3nc4cc(C(C)(C)C)ccc4o3)c(C)c2)C2CCCC2)C(=O)Nc2ccc([N+](=O)[O-])cc2Cl)cc1 (stereo not drawn) [Coupler Y-4]
- Amplification [1]: 1967
- Blue Dmax [1]: 0.86
- Drange [1]: 0.71
- Gamma [1]: 0.58
- Rel. Amp. [1]: 1.8

SMILES: CCCCCCCCCCCCCCCCNS(=O)(=O)c1ccc(Cl)c(NC(=O)C(OC(=O)N(CCCC)c2ccc(/C=C(\C#N)c3nc4ccccc4o3)c(C)c2)C(=O)c2ccc(OC)cc2)c1 (stereo not drawn) [CY-13]
- Blue Dmax [4]: 0.6
- Amplification [4]: 1222
- Drange [4]: 0.44
- Gamma [4]: 0.24
- Rel. Amp. [4]: 1.9

SMILES: CCCCCCCCCCCCNS(=O)(=O)c1ccc(NC(=O)C(OC(=O)N(c2ccc(/C=C(\C#N)c3nc4ccccc4o3)c(C)c2)C2CCCC2)C(=O)c2ccccc2)c(Cl)c1 (stereo not drawn) [Coupler Y-9]
- Blue Dmax [4]: 1.04
- Amplification [4]: 2208
- Drange [4]: 0.80
- Gamma [4]: 0.51
- Rel. Amp. [4]: 3.5

SMILES: CCCCCCCCCCCCNS(=O)(=O)c1ccc(NC(=O)C(OC(=O)N(c2ccc(/C=C(\C#N)c3nc4cc(C(C)(C)C)ccc4o3)c(C)c2)C2CCCC2)C(=O)c2ccc(OC)cc2)c(Cl)c1 (stereo not drawn) [CY-8]
- Amplification [2]: 1442
- Blue Dmax [2]: 0.65
- Drange [2]: 0.52
- Gamma [2]: 0.32
- Rel. Amp. [2]: 2.2

SMILES: CCCCCCCCCCCCCCCCNS(=O)(=O)c1ccc(Cl)c(NC(=O)C(OC(=O)N(C)c2ccc(/C=C(\C#N)c3nc4cc(C(C)(C)C)ccc4o3)c(C)c2)C(=O)c2ccc(OC)cc2)c1 (stereo not drawn) [Coupler Y-2]
- Rel. Amp. [3]: 2.4
- Amplification [3]: 3019
- Blue Dmax [3]: 1.30
- Drange [3]: 1.09
- Gamma [3]: 1.01
